Assay results reported in PubChem BioAssay AID504444 (National Center for Advancing Translational Sciences (NCATS), 2011).
Among all 360,000 compounds or so, about 7,500 (2.1%) were called active. The inconclusive results got no clear call from the source; some entries with a clear call stand among them for comparison. Calls come from the whole dose curve; as a rule, active = well fitted inhibition curve with a large enough effect; inconclusive = small, poorly fitted or top-dose-only effect, or effect the other way; inactive = flat fitted curve, though single readings scatter. A potency beside an inconclusive call is a rough fit, not a confirmed value.

Experiment: Nrf2 qHTS screen for inhibitors; note: nearly all actives have a fitted effect of over 60% in size
Settings: A549 ARE-Fluc reporter, luciferase luminescence, 18-24 h; activity change, negative = inhibition: at 46 µM (top of the series)
Method in brief: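 A549 ARE_Fluc cells, 5000/well, 5% FBS OPTI-MEM; compounds in dose-response, 18-24 h at 37 °C/5% CO2; CellTiter-Fluor viability read (Ex 405/Em 525), then BugLite luciferase luminescence = Nrf2 activity.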
% is set by controls: 0 for no effect and ±100 for the full control effect; potency is the fitted concentration of half-maximal effect.

Question: With `COC(=O)[C@@]12CCCCN1[C@H](c1ccc(-c3cccc(Cl)c3)cc1)[C@H]1C(=O)N(C)C(=O)[C@H]12` as the molecule, how does the Potency read?
Answer: inconclusive: 32.6 µM [falling, single point]

Question: With `O=C(CSc1nc(-c2cccs2)nc2cc(=O)[nH]n12)Nc1ccccc1F` as the molecule, how does the Potency read?
Answer: inconclusive: 29.1 µM [activator, single point]

Question: Which Potency does the source give for `CCCOc1ccc(C(=O)Nc2ccc(Cl)c(-c3nc4ncccc4o3)c2)cc1` here?
Answer: inconclusive: 29.1 µM [falling, single point]

Question: Which Potency does the source give for `CCC(=O)Nc1c2c(nn1-c1cccc(Cl)c1)CSC2` here?
Answer: inconclusive: 6.51 µM [falling, single point]

Question: For `Cc1ccc(-c2noc(CCCC(=O)NCc3ccco3)n2)cc1`, which Potency is on record?
Answer: inconclusive: 7.31 µM [falling, partial curve]

Question: For `CC(=O)c1cccc(N(C(=O)CNC(=O)c2ccco2)C(C(=O)NCc2ccco2)c2ccccc2)c1` (stereo unspecified), which Potency is on record?
Answer: inconclusive: 20.6 µM [activator, partial curve, poor fit]

Question: With `Cc1c(-c2nsc(NC(=O)c3cccc(Cl)c3)n2)nnn1-c1ccccc1C(F)(F)F` as the molecule, how does the Potency read?
Answer: inconclusive: 29.1 µM [falling, single point]

Question: Which Potency does the source give for `Cc1ccc(SCc2noc(C(=O)NC(C)C)c2C(=O)O)cc1C` here?
Answer: inconclusive: 18.4 µM [activator, single point]

Question: For `CCOc1ccc(CCNC(=O)CCc2c(C)nc3cc(-c4ccccc4OC)nn3c2C)cc1`, which Potency is on record?
Answer: active: 14.6 µM

Question: For `CCOc1ccc(CCNC(=O)c2ccc(CS(=O)Cc3cccc(Cl)c3)o2)cc1` (stereo unspecified), which Potency is on record?
Answer: inactive

Question: With `COC(=O)c1ccc(NC(=O)CSc2ncc3c(n2)-c2cc(Cl)ccc2N(Cc2ccccc2)S3(=O)=O)cc1` as the molecule, how does the Potency read?
Answer: inconclusive: 29.1 µM [activator, single point]

Question: For `Cn1c(=O)c2[nH]c(Cc3cccc(O)c3)nc2n(C)c1=O`, which “activity change, negative = inhibition” value is on record?
Answer: inactive: -20.7%

Question: Which Potency does the source give for `CC(Oc1cccc(NC(=O)c2cccs2)c1)C(=O)c1ccccc1` (stereo unspecified) here?
Answer: inconclusive: 25.9 µM [falling, single point]

Question: With `CS(=O)(=O)c1ccc2nc(NC(=O)Nc3ccccc3F)sc2c1` as the molecule, how does the Potency read?
Answer: inconclusive: 2.91 µM [activator, single point]

Question: With `O=C(NCc1ccccc1)N(Cc1cc2cc3c(cc2[nH]c1=O)OCCO3)CC1CCCO1` (stereo unspecified) as the molecule, how does the Potency read?
Answer: inconclusive: 23.1 µM [falling, partial curve, poor fit]

Question: For `Cc1ccc(NC(=O)c2ccc3nc[nH]c3c2)cc1C`, which Potency is on record?
Answer: inconclusive: 20.6 µM [activator, partial curve]

Question: For `NS(=O)(=O)c1ccc(CNC(=O)C(c2ccccc2)c2ccccc2)cc1`, which Potency is on record?
Answer: inconclusive: 8.2 µM [falling, partial curve, poor fit]

Question: With `O=[N+]([O-])c1ccc(N2CCN(C(=S)Nc3cccc(F)c3)CC2)cc1` as the molecule, how does the Potency read?
Answer: active: 16.4 µM

Question: For `CC(C)c1ccc(NC2CCCN(C(=O)c3ccc(N4CCOCC4)cc3)C2)cc1` (stereo unspecified), which Potency is on record?
Answer: inconclusive: 23.1 µM [falling, partial curve, poor fit]

Question: For `Cn1cc(Cl)cc(C(=O)Nc2ccccc2)c1=O`, which Potency is on record?
Answer: inconclusive: 1.46 µM [activator, full curve]

Question: With `CCC(C(=O)Nc1ccccc1OC)n1nc(C)c2sc3ccccc3c2c1=O` (stereo unspecified) as the molecule, how does the Potency read?
Answer: inconclusive: 14.6 µM [activator, partial curve, poor fit]

Question: For `CCOc1ccc2[nH]c(=O)c(C(c3nnnn3C3CCCCC3)N3CCN(CC)CC3)cc2c1` (stereo unspecified), which “activity change, negative = inhibition” value is on record?
Answer: inactive: 17.2%

Question: Which Potency does the source give for `Cc1cc(NC(=O)c2cccc(Cl)c2)n[nH]1` here?
Answer: inconclusive: 2.06 µM [activator, full curve]

Question: Which “activity change, negative = inhibition” value does the source give for `CCCc1c(-c2ccc(O)cc2)nn(-c2ccc(O)cc2)c1-c1ccc(O)cc1` here?
Answer: inactive: -7.27%

Question: Which Potency does the source give for `CS(=O)(=O)c1ccc2sc(NC(=O)c3cc4ccccc4o3)nc2c1` here?
Answer: inconclusive: 25.9 µM [activator, partial curve, poor fit]

Question: Which Potency does the source give for `Cc1cccc(N2CC(C(=O)Nc3cccc(S(=O)(=O)N4CCCCC4)c3)CC2=O)c1C` (stereo unspecified) here?
Answer: inconclusive: 20.6 µM [falling, single point]

Question: For `O=C(NCc1cccnc1)/C(=C\c1ccc(-c2cccc(Cl)c2)o1)S(=O)(=O)c1ccccc1`, which Potency is on record?
Answer: active: 20.6 µM

Question: With `Cc1ccc(NC(=O)c2c(C)oc3nc(C)nc(N4CCCC4)c23)c(C)c1` as the molecule, how does the Potency read?
Answer: inconclusive: 23.1 µM [activator, single point]

Question: For `CCOC(=O)/C(C#N)=C1\Nc2ccccc2N=C1N(CC(C)C)CC(C)C`, which “activity change, negative = inhibition” value is on record?
Answer: inactive: 8.18%

Question: For `COC(=O)c1c(C)[nH]c(C(=O)C(C)OC(=O)c2c(C)noc2C)c1C` (stereo unspecified), which Potency is on record?
Answer: inconclusive: 7.31 µM [falling, full curve, poor fit]

Question: For `CCN(CCCNC(=O)CSc1cc(=O)n(CC)c2ccccc12)c1cccc(C)c1`, which Potency is on record?
Answer: inconclusive: 16.4 µM [falling, partial curve, poor fit]

Question: For `CCOC(=O)C(C(=O)OCC)C(Nc1ccc(Br)cc1)c1ccccc1` (stereo unspecified), which Potency is on record?
Answer: inconclusive: 32.6 µM [falling, single point]

Question: Which Potency does the source give for `Cc1ccc(C=Nc2cccnc2N)cc1` here?
Answer: inconclusive: 7.31 µM [activator, partial curve]

Question: With `CC(Sc1cn(CCNC(=O)c2ccccc2F)c2ccccc12)c1ccccc1` (stereo unspecified) as the molecule, how does the Potency read?
Answer: inconclusive: 29.1 µM [falling, single point]

Question: With `COc1ccccc1OCc1cc(-c2ccccc2)no1` as the molecule, how does the Potency read?
Answer: inconclusive: 23.1 µM [activator, partial curve]

Question: Which Potency does the source give for `O=C(c1ccc2c(=O)n(Cc3ccco3)c(=S)[nH]c2c1)N1CCN(Cc2ccc3c(c2)OCO3)CC1` here?
Answer: active: 16.4 µM

Question: For `Cc1c(Cl)cccc1NC(=O)Nc1nnc(N(C)Cc2ccccc2)s1`, which “activity change, negative = inhibition” value is on record?
Answer: inactive: -0.107%

Question: Which Potency does the source give for `O=C(Nc1ccccc1)C1CC(=O)N(c2ccc3c4c(cccc24)CC3)C1` (stereo unspecified) here?
Answer: inconclusive: 25.9 µM [falling, single point]

Question: Which Potency does the source give for `COCC(=O)OC/C(O)=C(\C#N)c1nc2ccccc2[nH]1` here?
Answer: inconclusive: 14.6 µM [falling, partial curve]

Question: Which Potency does the source give for `Oc1c(Cl)cc(Cl)c(Cl)c1Cc1c(O)c(Cl)cc(Cl)c1Cl` here?
Answer: active: 14.6 µM

Question: Which Potency does the source give for `Cc1c(NC(=O)C(C)(C)Oc2ccc(Cl)cc2)cccc1-c1nc2ncccc2o1` here?
Answer: inconclusive: 29.1 µM [falling, single point]

Question: With `CC(=O)c1ccc(NC(=O)Cn2cc(S(=O)(=O)Cc3ccccc3Cl)c3ccccc32)cc1` as the molecule, how does the Potency read?
Answer: inconclusive: 14.6 µM [falling, partial curve, poor fit]

Question: For `CC(C)(C)C1CCC(=NNC(=O)c2ccco2)CC1` (stereo unspecified), which Potency is on record?
Answer: inconclusive: 13 µM [activator, partial curve]

Question: For `CCCN(CCC)S(=O)(=O)c1ccc(C(=O)Nc2nnc(COC)o2)cc1`, which Potency is on record?
Answer: inconclusive: 14.6 µM [falling, single point]

Question: With `CCN(CC(=O)NCc1ccc(Cl)cc1)C(=O)c1cc(S(=O)(=O)NCc2ccccc2)ccc1C` as the molecule, how does the Potency read?
Answer: inconclusive: 0.82 µM [falling, full curve, poor fit]

Question: Which Potency does the source give for `CCCCCCCCC(=O)N/N=C/c1ccccn1` here?
Answer: inconclusive: 29.1 µM [falling, single point]

Question: Which Potency does the source give for `CCN(C(=O)c1ccc2c(c1)OCO2)C12CC3CC(CC(C3)C1)C2` here?
Answer: inconclusive: 18.4 µM [falling, single point]

Question: With `O=c1cc(Cn2nnc(-c3ccc(Cl)cc3)n2)nc2sccn12` as the molecule, how does the Potency read?
Answer: inconclusive: 20.6 µM [falling, single point]

Question: For `O=c1ccn(Cc2ccccc2)c2ccccc12`, which Potency is on record?
Answer: inconclusive: 18.4 µM [falling, partial curve]

Question: Which “activity change, negative = inhibition” value does the source give for `CCOc1cc(C2C3=C(CC(C)(C)CC3=O)N(CCCOC)C3=C2C(=O)CC(C)(C)C3)ccc1OC` here?
Answer: inactive: -4.52%

Question: Which “activity change, negative = inhibition” value does the source give for `O=C1CSC(=S)N1N=Cc1ccc(Cl)cc1Cl` here?
Answer: inactive: 12.6%

Question: With `CC(C)C1OC2c3cccc4cccc(c34)C2N1c1ccccc1` (stereo unspecified) as the molecule, how does the Potency read?
Answer: inconclusive: 18.4 µM [activator, single point]

Question: For `COC(=O)c1sccc1S(=O)(=O)N(CC(=O)Nc1c(C)cccc1C)c1ccc(C)c(C)c1`, which “activity change, negative = inhibition” value is on record?
Answer: inactive: 15.2%

Question: With `COc1cc(OC)c(OC)cc1/C=N/NC(=S)NCCN1CCOCC1` as the molecule, how does the “activity change, negative = inhibition” value read?
Answer: inactive: 7.01%

Question: Which Potency does the source give for `COc1ccc2c(c1)c(=O)c(S(=O)(=O)c1ccc(C)cc1)cn2Cc1ccccc1C` here?
Answer: inconclusive: 5.17 µM [falling, partial curve, poor fit]

Question: Which Potency does the source give for `COC(=O)C(C)n1nnc2sc(-c3ccccc3)cc2c1=O` (stereo unspecified) here?
Answer: inconclusive: 29.1 µM [falling, partial curve, poor fit]

Question: Which “activity change, negative = inhibition” value does the source give for `Cc1ccc(NC(=O)CCC(=O)N2CCSc3ccccc32)cc1Cl` here?
Answer: inactive: 3.91%

Question: Which Potency does the source give for `CC1CCN(CCCCOc2ccccc2[N+](=O)[O-])CC1` here?
Answer: inconclusive: 25.9 µM [activator, partial curve, poor fit]

Question: For `COc1cccc(C2C3=C(N=C4SCC(=O)N42)c2ccccc2CC3)c1OC` (stereo unspecified), which Potency is on record?
Answer: inconclusive: 18.4 µM [falling, single point]

Question: With `CCNC(=O)NC(=O)COC(=O)C1CSC2(C)CCC(=O)N12` (stereo unspecified) as the molecule, how does the “activity change, negative = inhibition” value read?
Answer: inactive: -0.0423%

Question: Which Potency does the source give for `COc1ccc(-c2noc(CCC(=O)Nc3cc(Cl)c(OC)cc3OC)n2)cc1` here?
Answer: inconclusive: 2.91 µM [activator, partial curve, poor fit]

Question: For `Cc1ccc(-c2ccc(CCC(=O)O)n2-c2ccc(C(=O)O)cc2)cc1`, which Potency is on record?
Answer: inconclusive: 13 µM [activator, partial curve]

Question: Which “activity change, negative = inhibition” value does the source give for `CN(Cc1c(F)cccc1Cl)C(=O)c1cccc(S(=O)(=O)NCc2ccccc2)c1` here?
Answer: inactive: -11%

Question: For `O=[N+]([O-])c1ccccc1S(=O)(=O)N1CCN(c2ccccn2)CC1`, which Potency is on record?
Answer: inconclusive: 29.1 µM [falling, single point]

Question: Which “activity change, negative = inhibition” value does the source give for `CSc1ccc(S(=O)(=O)NCC(=O)OCC(=O)N2CCCC2=O)cc1[N+](=O)[O-]` here?
Answer: inactive: -1.49%

Question: Which Potency does the source give for `COc1cc(/C=C/C(C)=NNc2ccccc2)ccc1O` here?
Answer: inconclusive: 29.1 µM [activator, single point]
